# Experimental data from the supplement of paper PMC8728848.
# Some of the results follow.
# B1: CD4 (Rattus norvegicus), P05540 (protein)
# chain: MCRGFSFRHLLPLLLLQLSKLLVVTQGSTSITAYKSEGESAEFSFPLNLGEESLQGELRWKAEKAPSSQSWITFSLKNQKVSVQKSTSNPKFQLSETLPLTLQIPQVSLQFAGSGNLTLTLDRGILYQEVNLVVMKVTQPDSNTLTCEVMGPTSPKMRLILKQENQEARVSRQEKVIQVQAPEAGVWQCLLSEGEEVKMDSKIQVLSKGLNSGGGSGGGTGGGDLAPQMLRELQETNAALQDVRELLRQQVKEITFLKNTVMECDACGLDRNLPPLAPLGPHPETLVKVKDAEDQLGARVGYIELDLNSGKILESFRPEERFPMMSTFKVLLCGAVLSRIDAGQEQLGRRIHYSQNDLVEYSPVTEKHLTDGMTVRELCSAAITMSDNTAANLLLTTIGGPKELTAFLHNMGDHVTRLDRWEPELNEAIPNDERDTTMPVAMATTLRKLLTGELLTLASRQQLIDWMEADKVAGPLLRSALPAGWFIADKSGAGERGSRGIIAALGPDGKPSRIVVIYTTGSQATMDERNRQIAEIGASLIKHW
# How the values were obtained:
# Experiment in all cases: glycan array binding signal (z-score within array); higher = stronger binding
# Details in all cases: glycan notation: IUPAC condensed, linker removed
# Fuc(a1-3)GlcNAc = target: Fuc(a1-3)GlcNAc
# In short: (§1)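 The binding signal is a Z-score computed within each array and averaged over linkers. Arrays of the same protein sequence at different concentrations or buffers were also averaged together. Data originate from 3228 arrays in the Consortium for Functional Glycomics database, kept only where the protein sequence was available.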
# [1] = target: Fuc(a1-3)[Gal(b1-4)]Glc6S
# In short: as §1
# [2] = target: Fuc(a1-3)[Gal(b1-4)]GlcNAc
# In short: as §1
# [3] = target: Fuc(a1-3)[Gal(b1-4)]GlcNAc(b1-2)Man
# In short: as §1
# [4] = target: Fuc(a1-3)[Gal(b1-4)]GlcNAc(b1-2)Man(a1-3)[Fuc(a1-3)[Gal(b1-4)]GlcNAc(b1-2)Man(a1-6)]Man(b1-4)GlcNAc(b1-4)GlcNAc
# In short: as §1
# [5] = target: Fuc(a1-3)[Gal(b1-4)]GlcNAc(b1-2)Man(a1-3)[Fuc(a1-3)[Gal(b1-4)]GlcNAc(b1-2)Man(a1-6)]Man(b1-4)GlcNAc(b1-4)[Fuc(a1-6)]GlcNAc
# In short: as §1
# [6] = target: Fuc(a1-3)[Gal(b1-4)]GlcNAc(b1-3)Gal(b1-3)[Fuc(a1-4)]GlcNAc
# In short: as §1
# [7] = target: Fuc(a1-3)[Gal(b1-4)]GlcNAc(b1-3)GalNAc
# In short: as §1
# [8] = target: Fuc(a1-3)[Gal(b1-4)]GlcNAc(b1-4)Gal(b1-4)[Fuc(a1-3)]GlcNAc
# In short: as §1
# [9] = target: Fuc(a1-3)[Gal(b1-4)]GlcNAc(b1-4)Gal(b1-4)[Fuc(a1-3)]GlcNAc(b1-4)Gal(b1-4)[Fuc(a1-3)]GlcNAc
# In short: as §1
# [10] = target: Fuc(a1-3)[Gal(b1-4)]GlcNAc(b1-6)GalNAc
# In short: as §1
# [11] = target: Fuc(a1-3)[Gal(b1-4)]GlcNAc(b1-6)[Gal(b1-3)GlcNAc(b1-3)]Gal(b1-4)Glc
# In short: as §1
# [12] = target: Fuc(a1-3)[Gal(b1-4)]GlcNAc6S
# In short: as §1
# [13] = target: Fuc(a1-3)[Gal3S(b1-4)]Glc
# In short: as §1
# [14] = target: Fuc(a1-3)[Gal3S(b1-4)]GlcNAc
# In short: as §1
# [15] = target: Fuc(a1-3)[Gal3S(b1-4)]GlcNAc6S
# In short: as §1
# [16] = target: Fuc(a1-3)[GalNAc(b1-4)]GlcNAc
# In short: as §1
# [17] = target: Fuc(a1-3)[GalNAc(b1-4)]GlcNAc6S
# In short: as §1
# Fuc(a1-4)GlcNAc = target: Fuc(a1-4)GlcNAc
# In short: as §1
# Fuc(b1-3)GlcNAc = target: Fuc(b1-3)GlcNAc
# In short: as §1
# Gal(a1-2)Gal = target: Gal(a1-2)Gal
# In short: as §1
# Gal(a1-3)Gal = target: Gal(a1-3)Gal
# In short: as §1
# Gal(a1-3)Gal(b1-3)GlcNAc = target: Gal(a1-3)Gal(b1-3)GlcNAc
# In short: as §1
# [18] = target: Gal(a1-3)Gal(b1-3)GlcNAc(b1-2)Man
# In short: as §1
# [19] = target: Gal(a1-3)Gal(b1-3)GlcNAc(b1-2)Man(a1-3)[Gal(a1-3)Gal(b1-3)GlcNAc(b1-2)Man(a1-6)]Man(b1-4)GlcNAc(b1-4)GlcNAc
# In short: as §1
# [20] = target: Gal(a1-3)Gal(b1-3)GlcNAc(b1-3)GalNAc
# In short: as §1
# [21] = target: Gal(a1-3)Gal(b1-3)GlcNAc(b1-6)GalNAc
# In short: as §1
# [22] = target: Gal(a1-3)Gal(b1-3)[Fuc(a1-4)]GlcNAc(b1-2)Man(a1-3)[Gal(a1-3)Gal(b1-3)[Fuc(a1-4)]GlcNAc(b1-2)Man(a1-6)]Man(b1-4)GlcNAc(b1-4)GlcNAc
# In short: as §1
# Gal(a1-3)Gal(b1-4)Glc = target: Gal(a1-3)Gal(b1-4)Glc
# In short: as §1
# Gal(a1-3)Gal(b1-4)GlcNAc = target: Gal(a1-3)Gal(b1-4)GlcNAc
# In short: as §1
binder,measurement,setting,value
B1,glycan array binding signal (z-score),Fuc(a1-3)GlcNAc,-1.59
same,glycan array binding signal (z-score),[1],-0.879
same,glycan array binding signal (z-score),[2],-0.366
same,glycan array binding signal (z-score),[3],-0.667
same,glycan array binding signal (z-score),[4],-0.554
same,glycan array binding signal (z-score),[5],0.82
same,glycan array binding signal (z-score),[6],-0.514
same,glycan array binding signal (z-score),[7],0.843
same,glycan array binding signal (z-score),[8],0.414
same,glycan array binding signal (z-score),[9],-0.386
same,glycan array binding signal (z-score),[10],0.46
same,glycan array binding signal (z-score),[11],0.161
same,glycan array binding signal (z-score),[12],-0.378
same,glycan array binding signal (z-score),[13],2.21
same,glycan array binding signal (z-score),[14],-0.413
same,glycan array binding signal (z-score),[15],-1.09
same,glycan array binding signal (z-score),[16],2.04
same,glycan array binding signal (z-score),[17],-0.239
same,glycan array binding signal (z-score),Fuc(a1-4)GlcNAc,-0.208
same,glycan array binding signal (z-score),Fuc(b1-3)GlcNAc,0.41
same,glycan array binding signal (z-score),Gal(a1-2)Gal,-0.821
same,glycan array binding signal (z-score),Gal(a1-3)Gal,-0.233
same,glycan array binding signal (z-score),Gal(a1-3)Gal(b1-3)GlcNAc,0.726
same,glycan array binding signal (z-score),[18],-0.413
same,glycan array binding signal (z-score),[19],-0.472
same,glycan array binding signal (z-score),[20],0.801
same,glycan array binding signal (z-score),[21],1.16
same,glycan array binding signal (z-score),[22],1.42
same,glycan array binding signal (z-score),Gal(a1-3)Gal(b1-4)Glc,-0.699
same,glycan array binding signal (z-score),Gal(a1-3)Gal(b1-4)GlcNAc,-0.596

# For convenience, some entries already given:
binder,measurement,setting,value
B1,glycan array binding signal (z-score),[20],0.801
same,glycan array binding signal (z-score),[21],1.16
